# Data: the supplement of paper PMC11732987, “Enantioselective OTUD7B fragment discovery through chemoproteomics screening and high-throughput optimisation” (Communications Chemistry, 2025)
# By UniProt entry, the sequences of proteins in these tests, tags left out. Where a name states a change or a piece, a line headed by the entry shows the natural chain unless it says otherwise.
# UniProt P42695: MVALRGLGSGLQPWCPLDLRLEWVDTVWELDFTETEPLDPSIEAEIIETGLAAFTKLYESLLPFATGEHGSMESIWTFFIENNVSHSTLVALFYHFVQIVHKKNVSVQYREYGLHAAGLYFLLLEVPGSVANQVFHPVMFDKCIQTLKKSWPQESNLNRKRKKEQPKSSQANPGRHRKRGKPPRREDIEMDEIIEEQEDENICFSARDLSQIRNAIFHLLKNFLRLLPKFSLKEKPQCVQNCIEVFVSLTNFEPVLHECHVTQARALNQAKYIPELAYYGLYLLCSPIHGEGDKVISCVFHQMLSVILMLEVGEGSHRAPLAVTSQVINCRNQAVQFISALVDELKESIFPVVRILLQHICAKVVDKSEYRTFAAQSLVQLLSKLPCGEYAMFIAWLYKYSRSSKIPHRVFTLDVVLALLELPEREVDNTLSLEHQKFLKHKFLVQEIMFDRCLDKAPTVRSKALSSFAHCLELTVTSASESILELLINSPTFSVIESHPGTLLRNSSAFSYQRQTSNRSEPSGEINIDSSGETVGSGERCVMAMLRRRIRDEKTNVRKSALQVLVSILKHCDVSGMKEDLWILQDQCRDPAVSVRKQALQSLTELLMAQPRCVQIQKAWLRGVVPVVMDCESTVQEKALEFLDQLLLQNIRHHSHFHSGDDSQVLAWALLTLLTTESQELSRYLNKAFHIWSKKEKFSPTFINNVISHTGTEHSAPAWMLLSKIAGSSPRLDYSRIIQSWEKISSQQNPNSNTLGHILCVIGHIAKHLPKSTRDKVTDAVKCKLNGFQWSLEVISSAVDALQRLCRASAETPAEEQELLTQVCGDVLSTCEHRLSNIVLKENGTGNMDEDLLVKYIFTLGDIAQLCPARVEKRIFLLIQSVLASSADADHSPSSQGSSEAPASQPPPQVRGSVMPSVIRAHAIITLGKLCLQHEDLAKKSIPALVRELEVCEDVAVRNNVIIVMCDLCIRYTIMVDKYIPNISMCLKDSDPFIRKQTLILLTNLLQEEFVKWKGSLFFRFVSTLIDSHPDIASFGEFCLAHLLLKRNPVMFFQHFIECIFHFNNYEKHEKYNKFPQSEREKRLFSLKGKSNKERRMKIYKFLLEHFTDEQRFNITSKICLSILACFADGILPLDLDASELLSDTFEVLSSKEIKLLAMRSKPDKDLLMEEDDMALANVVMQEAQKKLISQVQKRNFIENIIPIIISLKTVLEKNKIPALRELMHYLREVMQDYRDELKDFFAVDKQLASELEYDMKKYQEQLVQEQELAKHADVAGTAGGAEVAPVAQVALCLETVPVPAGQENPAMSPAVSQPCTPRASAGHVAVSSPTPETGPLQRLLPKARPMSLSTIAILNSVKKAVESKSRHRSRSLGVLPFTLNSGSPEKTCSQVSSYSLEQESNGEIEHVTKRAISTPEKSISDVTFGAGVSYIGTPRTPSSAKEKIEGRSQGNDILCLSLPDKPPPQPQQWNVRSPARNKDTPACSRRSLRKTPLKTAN
# UniProt Q7L592: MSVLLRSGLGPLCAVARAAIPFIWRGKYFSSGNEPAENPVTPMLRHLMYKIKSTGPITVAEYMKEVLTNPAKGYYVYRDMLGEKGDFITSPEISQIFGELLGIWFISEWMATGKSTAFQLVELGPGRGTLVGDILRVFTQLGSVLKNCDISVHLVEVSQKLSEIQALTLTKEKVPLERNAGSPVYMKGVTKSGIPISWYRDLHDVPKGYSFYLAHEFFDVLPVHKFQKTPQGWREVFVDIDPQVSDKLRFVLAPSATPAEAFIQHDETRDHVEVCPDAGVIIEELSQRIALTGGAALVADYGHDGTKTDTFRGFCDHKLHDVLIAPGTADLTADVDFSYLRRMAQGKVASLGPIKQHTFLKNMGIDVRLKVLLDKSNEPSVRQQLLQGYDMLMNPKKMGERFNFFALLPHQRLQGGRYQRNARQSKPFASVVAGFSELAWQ
# UniProt Q86X76: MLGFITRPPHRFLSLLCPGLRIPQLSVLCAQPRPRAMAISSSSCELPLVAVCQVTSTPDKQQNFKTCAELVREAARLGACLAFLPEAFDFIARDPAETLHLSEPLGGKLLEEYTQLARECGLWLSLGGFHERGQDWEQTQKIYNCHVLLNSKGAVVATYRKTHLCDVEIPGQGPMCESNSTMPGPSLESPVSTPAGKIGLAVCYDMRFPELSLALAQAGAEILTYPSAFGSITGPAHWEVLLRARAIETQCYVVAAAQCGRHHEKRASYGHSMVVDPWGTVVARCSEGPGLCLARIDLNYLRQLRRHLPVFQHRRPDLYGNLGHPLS
# UniProt O14524: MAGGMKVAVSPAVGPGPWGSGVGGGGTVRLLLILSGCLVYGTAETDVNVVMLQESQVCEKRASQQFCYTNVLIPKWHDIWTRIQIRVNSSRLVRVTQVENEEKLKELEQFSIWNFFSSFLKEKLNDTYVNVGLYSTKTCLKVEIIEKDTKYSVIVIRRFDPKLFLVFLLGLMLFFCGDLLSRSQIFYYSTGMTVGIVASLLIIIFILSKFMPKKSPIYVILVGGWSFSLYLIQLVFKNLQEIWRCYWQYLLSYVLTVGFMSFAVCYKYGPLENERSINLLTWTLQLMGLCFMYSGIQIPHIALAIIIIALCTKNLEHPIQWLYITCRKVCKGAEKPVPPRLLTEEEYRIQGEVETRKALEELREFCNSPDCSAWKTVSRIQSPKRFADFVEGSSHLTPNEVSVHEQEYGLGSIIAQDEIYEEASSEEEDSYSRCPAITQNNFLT
# UniProt Q6KC79: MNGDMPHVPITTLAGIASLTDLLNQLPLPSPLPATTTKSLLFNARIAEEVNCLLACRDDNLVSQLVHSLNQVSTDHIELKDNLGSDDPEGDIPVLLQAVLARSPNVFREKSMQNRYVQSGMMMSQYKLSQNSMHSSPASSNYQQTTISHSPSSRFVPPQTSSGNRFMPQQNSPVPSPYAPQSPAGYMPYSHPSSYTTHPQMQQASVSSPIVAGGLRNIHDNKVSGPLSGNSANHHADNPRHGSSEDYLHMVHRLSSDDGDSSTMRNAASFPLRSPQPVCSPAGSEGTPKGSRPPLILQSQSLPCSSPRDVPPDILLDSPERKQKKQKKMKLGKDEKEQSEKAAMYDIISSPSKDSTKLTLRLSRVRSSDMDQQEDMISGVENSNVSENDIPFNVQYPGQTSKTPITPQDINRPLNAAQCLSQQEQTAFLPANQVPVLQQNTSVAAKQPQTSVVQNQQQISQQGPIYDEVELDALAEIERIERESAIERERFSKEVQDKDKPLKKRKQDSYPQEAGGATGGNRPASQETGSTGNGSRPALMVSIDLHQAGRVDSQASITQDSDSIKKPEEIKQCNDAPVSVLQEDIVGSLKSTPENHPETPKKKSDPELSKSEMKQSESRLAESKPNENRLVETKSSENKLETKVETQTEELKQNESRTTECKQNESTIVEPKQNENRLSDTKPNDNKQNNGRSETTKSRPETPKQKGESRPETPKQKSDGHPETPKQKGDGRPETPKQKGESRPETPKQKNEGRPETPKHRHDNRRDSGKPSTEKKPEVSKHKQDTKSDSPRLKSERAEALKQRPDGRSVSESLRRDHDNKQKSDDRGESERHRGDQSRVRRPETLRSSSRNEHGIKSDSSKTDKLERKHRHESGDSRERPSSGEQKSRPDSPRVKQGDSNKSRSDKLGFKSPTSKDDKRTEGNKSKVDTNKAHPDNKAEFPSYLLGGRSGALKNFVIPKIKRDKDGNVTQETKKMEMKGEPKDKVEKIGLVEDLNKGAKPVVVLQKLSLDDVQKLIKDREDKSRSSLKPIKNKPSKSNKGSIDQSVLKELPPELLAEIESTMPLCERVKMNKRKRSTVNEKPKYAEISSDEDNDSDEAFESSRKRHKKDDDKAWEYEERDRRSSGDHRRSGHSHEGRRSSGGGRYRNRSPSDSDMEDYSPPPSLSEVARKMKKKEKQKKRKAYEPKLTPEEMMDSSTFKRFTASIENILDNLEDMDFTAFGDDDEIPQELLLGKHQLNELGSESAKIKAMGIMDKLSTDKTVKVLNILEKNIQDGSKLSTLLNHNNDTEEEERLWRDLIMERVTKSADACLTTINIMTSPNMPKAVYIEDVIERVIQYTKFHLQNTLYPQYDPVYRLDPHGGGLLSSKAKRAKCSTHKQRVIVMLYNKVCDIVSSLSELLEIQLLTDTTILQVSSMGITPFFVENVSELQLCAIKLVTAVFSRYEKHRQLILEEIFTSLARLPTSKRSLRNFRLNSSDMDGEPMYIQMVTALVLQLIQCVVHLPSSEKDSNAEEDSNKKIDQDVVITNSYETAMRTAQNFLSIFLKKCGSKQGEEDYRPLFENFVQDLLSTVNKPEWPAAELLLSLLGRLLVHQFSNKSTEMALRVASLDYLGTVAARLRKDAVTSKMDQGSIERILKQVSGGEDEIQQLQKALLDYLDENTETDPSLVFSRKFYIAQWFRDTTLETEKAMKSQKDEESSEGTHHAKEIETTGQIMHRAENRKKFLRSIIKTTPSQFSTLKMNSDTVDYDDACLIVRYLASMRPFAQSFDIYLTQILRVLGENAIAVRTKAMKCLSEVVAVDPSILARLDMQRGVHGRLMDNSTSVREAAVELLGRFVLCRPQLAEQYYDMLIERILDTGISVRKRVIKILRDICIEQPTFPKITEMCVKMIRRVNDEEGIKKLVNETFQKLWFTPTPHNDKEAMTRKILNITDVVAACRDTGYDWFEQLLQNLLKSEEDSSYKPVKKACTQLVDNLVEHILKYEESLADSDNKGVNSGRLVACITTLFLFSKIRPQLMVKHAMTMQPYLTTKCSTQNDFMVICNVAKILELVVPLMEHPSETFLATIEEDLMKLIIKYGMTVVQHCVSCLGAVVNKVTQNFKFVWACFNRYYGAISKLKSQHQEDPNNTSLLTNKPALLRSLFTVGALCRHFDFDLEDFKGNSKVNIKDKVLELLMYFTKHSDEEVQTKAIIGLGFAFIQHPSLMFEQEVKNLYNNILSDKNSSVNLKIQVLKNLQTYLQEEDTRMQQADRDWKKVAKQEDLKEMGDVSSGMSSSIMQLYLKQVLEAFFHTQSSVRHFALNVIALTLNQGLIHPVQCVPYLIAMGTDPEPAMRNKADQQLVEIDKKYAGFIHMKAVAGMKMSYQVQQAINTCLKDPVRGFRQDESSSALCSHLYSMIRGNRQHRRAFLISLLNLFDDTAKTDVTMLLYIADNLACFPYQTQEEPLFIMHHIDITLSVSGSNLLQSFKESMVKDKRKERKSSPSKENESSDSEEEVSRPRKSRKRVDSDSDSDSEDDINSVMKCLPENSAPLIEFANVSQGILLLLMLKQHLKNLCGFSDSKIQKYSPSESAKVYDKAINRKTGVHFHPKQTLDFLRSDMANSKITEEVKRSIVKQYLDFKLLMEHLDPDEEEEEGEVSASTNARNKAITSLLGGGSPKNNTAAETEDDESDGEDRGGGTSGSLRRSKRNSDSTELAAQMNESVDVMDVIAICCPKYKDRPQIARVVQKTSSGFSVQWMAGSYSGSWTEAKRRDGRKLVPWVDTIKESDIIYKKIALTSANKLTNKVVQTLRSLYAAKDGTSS
# The other results are listed elsewhere or left out. The data scatter; read single values as rough.
# Compound: ClCC(=O)N[C@H]1CCCc2ccccc12
# Experiment: log2 mean competition ratio of IA-DTB cysteine labelling (DMSO/compound) (log2 ratio); higher = stronger cysteine engagement by compound
# Conditions: 200 µM; treatment time: 4 h; cell line lysate: HEK293T
# Protocol: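 IA-DTB competitive cysteine chemoproteomics in HEK293T RIPA lysate. Lysates were treated with compound 29 or 30 at 50 or 200 µM for 4 h, then IA-DTB (500 µM, 1 h), trypsin-digested, NeutrAvidin-enriched and analysed by diaPASEF. Competition ratio = intensity DMSO / intensity compound (n=4 treated, n=64 DMSO); binding: mean log2 CR ≥ 1 and p ≤ 0.05 plus QC filters. Target is the cysteine site.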
row,Target,log2 mean competition ratio
1,NINL C1009,-0.395
2,NCAPD3 C361 (UniProt P42695),-0.817
3,NDUFAF7 C148 (UniProt Q7L592),-0.146
4,NIT1 C203 (UniProt Q86X76),0.239
5,NOL6 C486 (UniProt Q9H6R4),-0.477
6,NKD2 C229,0.688
7,NEMP1 C434 (UniProt O14524),0.117
8,NDUFB10 C119 (UniProt O96000),0.404
9,NIPBL C2557 (UniProt Q6KC79),-0.0555

# Looked up one by one from above (2):
row,Target,log2 mean competition ratio
7,NEMP1 C434 (UniProt O14524),0.117
1,NINL C1009,-0.395
